Test results as given in publication PMC7560607, “Synapse type-specific proteomic dissection identifies IgSF8 as a hippocampal CA3 microcircuit organizer” (Nature Communications, 2020).
No constants are given. Whether binding was seen depends on the method and setting. In cells and extracts the contact can be indirect. A yes stands for co-enrichment or nearness to the bait. Other partners may have been found. Where a sequence is shown, tags or fusion partners need not be part of it.

T1: IgSF8-ecto-Fc, purified (not stated (human or mouse sequence cloned)) (UniProt Q8R366)
T1 sequence: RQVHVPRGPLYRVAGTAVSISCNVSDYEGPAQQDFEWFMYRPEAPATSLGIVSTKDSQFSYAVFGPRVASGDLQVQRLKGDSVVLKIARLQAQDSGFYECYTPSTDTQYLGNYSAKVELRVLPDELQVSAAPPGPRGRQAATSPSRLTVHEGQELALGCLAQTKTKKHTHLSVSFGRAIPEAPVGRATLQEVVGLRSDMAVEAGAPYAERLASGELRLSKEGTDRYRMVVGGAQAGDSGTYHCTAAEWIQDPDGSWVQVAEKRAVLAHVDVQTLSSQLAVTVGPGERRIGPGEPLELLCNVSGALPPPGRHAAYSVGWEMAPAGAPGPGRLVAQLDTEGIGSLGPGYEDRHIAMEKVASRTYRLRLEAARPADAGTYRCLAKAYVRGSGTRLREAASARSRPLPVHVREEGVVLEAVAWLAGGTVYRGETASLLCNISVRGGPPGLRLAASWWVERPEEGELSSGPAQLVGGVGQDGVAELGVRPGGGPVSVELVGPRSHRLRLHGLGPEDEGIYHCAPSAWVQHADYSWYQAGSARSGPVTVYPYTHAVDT


Key:
[1] = target: T1, IgSF8-ecto-Fc, purified (not stated (human or mouse sequence cloned)); experiment: affinity purification with mass spectrometry; 100 µg IgSF8-ecto-Fc prebound to Protein-A sepharose; 1% Triton X-100 extract of P21-22 rat whole brain P2 synaptosomes; overnight 4 °C; high-salt (300 mM NaCl) wash; LC-MS/MS; human Fc as control; only the target purified
[2] = target: T1, IgSF8-ecto-Fc, purified (not stated (human or mouse sequence cloned)); experiment: affinity purification with mass spectrometry; 100 µg IgSF8-ecto-Fc prebound to Protein-A sepharose; 1% Triton X-100 extract of P21 mouse P1 crude MF synaptosomes; overnight 4 °C; high-salt (300 mM NaCl) wash; LC-MS/MS; human Fc as control; only the target purified

| binding [1] | binding [2] | Binder |
| --- | --- | --- |
| binds |  | Tenascin-R, endogenous in rat brain synaptosome extract (protein, UniProt Q05546 32-1356) RLEVTTERVQRQTVEEEGGASSYNTSSKEQPMVFNHVYNINVPLESLCSSGLEASAEQDVSAEDDTLAEYTGQTSDHESQVTFTHKINLPKKACPCASSAQVLQELLSRIEMLEREVSVLRDQCNTNCCQESAATGQLDYVPHCSGHGNFSFESCGCICNEGWFGKNCSEPYCPLGCSSRGVCVDGQCICDSEYSGDDCSELRCPTDCSSRGLCVDGECVCEEPYTGEDCRELRCPGDCSGKGQCANGTCLCQEGYAGEDCSQRRCLNACSGRGHCQEGLCICEEGYQGPDCSAVTPPEDLRVAGISDRSIELEWDGPMAVTEYVISYQPSLGGLQLQQRVPGDWSGVTITELEPGLTYNISVYAVISNILSLPITAKVATHLSTPQGLQFKTITETTVEVQWEPFSFSFDGWEISFTPKNNEGGVIAQLPSDVTSFNQTGLKPGEEYIVNVVALKEQARGPPTSASVSTVIDGPTQILVRDVSDTVAFVEWTPPRAKVDFILLKYGLVGGEGGKTTFRLQPPLSQYSVQALRPGSRYEVSISAVRGTNESDASSTQFTTEIDAPKNLRVGSRTATSLDLEWDNSEAEAQEYKVVYSTLAGEQYHEVLVPKGIGPTTKTTLTDLVPGTEYGVGISAVMNSKQSIPATMNARTELDSPRDLMVTASSETSISLIWTKASGPIDHYRITFTPSSGISSEVTVPRDRTSYTLTDLEPGAEYIISITAERGRQQSLESTVDAFTGFRPISHLHFSHVTSSSVNITWSDPSPPADRLILNYSPRDEEEEMMEVLLDATKRHAVLMGLQPATEYIVNLVAVHGTVTSEPIVGSITTGIDPPKNITISNVTKDSLTVSWSPPVAPFDYYEYPIDHPSGRLDSSVVPNTVTEFTITRLYPASQYEISLNSVRGREESERICTLVHTAMDSPMDLIATNITPTEALLQWKAPMGEVENYVIVLTHFAMAGETILVDGVSEEFQLVDLLPRTHYTVTMYATSGPLVSGTIATNFSTLLDPPANLTASEVTRQSALISWQPPRAAIENYVLTYKSTDGSRKELIVDAEDTWIRLEGLSENTDYTVLLQAAQEATRSSLTSTIFTTGGRVFSHPQDCAQHLMNGDTLSGVYTIFLNGELSHKLQVYCDMTTDGGGWIVFQRRQNGQTDFFRKWADYRVGFGNLEDEFWLGLDNYHRITAQGRYELRVDMRDGQEAVFAYYDKFAVEDSRSLYKLRIGGYNGTAGDSLSYHQGRPFSTEDRDNDVAVTNCAMSYKGAWWYKNCHRTNLNGKYGESRHSQGINWYHWKGHEFSIPFVEMKMRPYIHRLTAGRKRRALKF |
|  | binds | Tenascin-R, endogenous in mouse MF synaptosome extract (protein, UniProt Q8BYI9 32-1358) RLEVTTERAQRQTVEEEGGASSYNTSSKEQPMVFNHVYNINVPLESLCSSGLEASAEQDMSAEDDTLAEYIGQTSDHESQVTFTHKINLPKKACPCASSSQVLQELLSRIEMLEREVSLLRDQCNTNCCQESAATGQLDYVPHCSGHGNFSFESCGCICNEGWFGKNCSEPYCPLGCSSRGVCVDGQCICDSEYSGDDCSELRCPTDCSSRGLCVDGECVCEEPYTGEDCRELRCPGDCSGKGQCANGTCLCQEGYAGEDCSQRRCLNACSGRGHCQEGLCICEEGYQGPDCSAVAPPEDLRVAGISDRSIELEWDGPMAVTEYVISYQPTALGGLQLQQRVPGDWSGVTIMELEPGLTYNISVYAVISNILSLPITAKVATHLSTPQGLQFKTITETTVEVQWEPFSFSFDGWEISFIPKNNEGGVIAQLPSDVTSFNQTGLKPGEEYIVNVVALKEQARSPPTSASVSTVIDGPTQILVRDVSDTVAFVEWTPPRAKVDFILLKYGLVGGEGGKTTFRLQPPLSQYSVQALRPGSRYEVSISAVRGTNESEASSTQFTTEIDAPKNLRVGSRTATSLDLEWDNSEAEAQEYKVVYSTLAGEQYHEVLVPKGIGPTTKTTLTDLVPGTEYGVGISAVMNSKQSIPATMNARTELDSPRDLMVTASSETSISLIWTKASGPIDHYRITFTPSSGISSEVTVPRDRTSYTLTDLEPGAEYIISITAERGRQQSLESTVDAFTGFRPISHLHFSHVTSSSVNITWSDPSPPADRLILNYSPRDKEEDMLEVLLDATKRHAVLMGLQPATEYIVNLVAVHGTVTSEPIVGSITTGIDPPKNITISNVTKDSLTVSWSSPVAPFDYYRVSYRPTQVGRLDSSVVPNTVTEFAITRLYPATEYEISLNSVRGREESERICTLVHTAMDSPMDLIATNITPTEALLQWKAPMGEVENYVIVLTHFAIAGETILVDGVSEEFQLVDLLPSTHYTVTMYATSGPLMSGTIATNFSTLLDPPDNLTASEVTRQSALISWQPPRAAIENYVLTYKSTDGSRKELIVDAEDTWIRLEGLSENTDYTVLLQAAQEATRSSLTSTVFTTGGRVFSHPQDCAQHLMNGDTLSGVYTIFLNGELSHKLQVYCDMTTDGGGWIVFQRRQNGQTDFFRKWADYRVGFGNLEDEFWLGLDNIHRITAQGRYELRVDMRDGQEAVFAYYDKFAVEDSRSLYKIRIGSYNGTAGDSLSYHQGRPFSTEDRDNDVAVTNCAMSYKGAWWYKNCHRTNLNGKYGESRHSQGINWYHWKGHEFSIPFVEMKMRPYIHRLTAGRKRRALKF |
